Measurements taken from paper doi:10.1101/341834.
Results are given in words; binding and its absence hold for the method and conditions named. Some results given as binding are weak or reduced against the parent protein; the word gives no strength.

Chains of the proteins cited; added tags and fusions are not shown.
UniProt P93002: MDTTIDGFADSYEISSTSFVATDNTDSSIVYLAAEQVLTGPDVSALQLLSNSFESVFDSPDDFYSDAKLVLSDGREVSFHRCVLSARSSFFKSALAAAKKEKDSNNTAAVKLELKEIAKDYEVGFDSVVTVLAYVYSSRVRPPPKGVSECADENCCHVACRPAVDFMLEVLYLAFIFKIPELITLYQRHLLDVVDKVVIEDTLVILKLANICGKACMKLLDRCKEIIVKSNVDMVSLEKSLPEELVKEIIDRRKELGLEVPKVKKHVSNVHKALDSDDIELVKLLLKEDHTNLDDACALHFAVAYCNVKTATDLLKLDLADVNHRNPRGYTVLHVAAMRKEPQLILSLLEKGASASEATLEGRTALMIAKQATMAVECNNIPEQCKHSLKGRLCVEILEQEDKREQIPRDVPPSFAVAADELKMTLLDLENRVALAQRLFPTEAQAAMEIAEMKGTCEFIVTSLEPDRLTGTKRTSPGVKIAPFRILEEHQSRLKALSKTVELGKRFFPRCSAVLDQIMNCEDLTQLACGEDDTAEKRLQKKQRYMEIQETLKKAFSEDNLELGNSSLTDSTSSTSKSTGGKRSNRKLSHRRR

biological target: GBD–AtNPR1 (Arabidopsis) (UniProt P93002); assay: two-hybrid

binding | Binder
binds | GAD–NtTGA2.1 (protein, UniProt O24160 1-456) MASKIGTAGNRSGTTGMPSFISQIPVSNPMGTEANNTNTSRMSDFGVLEQYLGFRIGDGANVNRSPLFNSTSATNPAVGFEVSGTINRTLAPSNTSLPTATPRSQTMLLQSNLVSASGTHHENWGESNMADSGSRTDTSTDMDGDDKNQLIEAGQSSDKSKEKVLDQKTLRRLAQNREAARKSRLRKKAYVQQLENSRLKLSQLEQDLQRARQQGKYISNIADQSNGVGANGPLAFDAEYSRWLEEHNKHINELRTAVNAHASDPELRSIVNNVTAHFDEVFRVKGNAAKADVFHVLSGMWKTPAERCFMWIGGFRPSELLKLLVNQLEPLTEQQLAGIYNLQQSSHQAEDALSQGMEALQQSLAETLANGSPAPEGSSGDVANYMGQMAMAMGKLGTLEGFLRQADNLRQQTLQQMHRVLTTRQSARALLAINEYFSRLRALSSLWLARPREQLV
no binding | GAD–NtTGA1a (protein, UniProt P14232 1-359) MGICDPIHQLGMWDDFNSSFPSTSATMILEVDKCLEDQIPIMEKRLDNETEDTSHGTVGTSNRYEPETSKPVEKVLRRLAQNREAARKSRLRKKAYVQQLENSKLKLIQLEQELERARKQGMCVGGGVDASQLSYSGTASSGTAVFDMEYGHWVEEQTRQTNDLRIALHSQIGEAELRIIVDGYLNHYFDLFRMKATAAKADVLYIMSGMWKTSAERFFMWIGGFRPSELLKVLTPHLELLTEQQLREVCNLTQSCQQAEDALSQGMVKLHQILAEAVAAGRLGEGNYTLPQMGPAIEKLEDLVRFVNQADHLRQETLQQMSRILNTCQAAQGLLALGEYFERLRVLSSQWATRLREPT
no binding | GAD–NtTGA10 (protein, UniProt Q52MZ2 1-506) MGFERAFVESSPEQENKLFVGVSYMDSSNKNQDPSESNNQISFGGQHQHHQQQFFYNHHQQQQLQNNNQVSFGMMQQSSSAIPGSLISKDSAGAYDLGELDQALFQYLDGQEPSSIQEQRQNSGMRPPTLNIFPSQPMHVEPSTTNKMNTGLVSPAISGSKRSSQPSMELSNNLKNNDAPSASGPEPPKAAKREGNRKGPTSSSEQDAPKTPDPKTLRRLAQNREAARKSRLRKKAYVQQLESSRIRLTQLEQELQRARAQGYYFGGNSLLGGEQNLPVNLANMSSDAAVFDMEYARWLEEHHRLMCELRNAVQEHFPENELRIYVDNCVTHYDEIMNLKSMLTKSDVFHLVSGMWKTPAERCFMWMGGFRPSELLKIILSQIEPLTEQQLMGICGLQQSTQEAEDALSQGLEALNHSLSDTIASDALSCPQNMANYMGQMALAMNKLSTLEGFVRQADNLRHQTIHRLHQLLTTRQAARCFLAIAEYFHRLRALSSLWHARPRQE
